Results deposited as PubChem BioAssay AID686938 (Drosophila RNAi Screening Center, 2013)

Screen: 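Fly genes required for calcium entry once internal stores are emptied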 (primary screen)
Cells: Drosophila S2R+ cells
Reagent: long dsRNA against Drosophila genes, about 0.25 µg dsRNA per well, roughly 10,000 cells
Duration: 5 days of knock-down before the calcium assay
Challenge: thapsigargin (SERCA pump blocker) to empty calcium stores; entry signal taken 4 min after adding it
Measured: 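Per-well fluo-4 fluorescence in two replicates, unnormalised, measured in resting cells and 4 min after store depletion by the SERCA blocker thapsigargin; ratio of the two present in few wells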
Scale: calcium entry signal: higher = stronger calcium signal after store depletion; entry to resting ratio: higher = more calcium entry relative to resting level; resting calcium signal: higher = higher resting calcium signal
Call rule: 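Called when the plate z-score of the entry-to-rest ratio, mean of duplicates, falls below −3; wells with low overall dye signal (Fmax z below −2) or more than five off-targets excluded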
Meaning of the calls: active = strongly reduced calcium entry; inactive = no strong reduction
The deposit covers about 23,000 reagents; below is a random part of those that have a named target and a result. Of all reagents, 75 (0.33%) were called active. 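Raw plate signals without normalisation; calls rest on plate z-scores that were not deposited; ratio present for only 364 wells.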 A number with no mark means an inactive call. Not given: the dose of the treatment.

The first 4 entries, ahead of the listing:
| gene knocked down | dsRNA | calcium entry signal, replicate 1 (fluorescence units) | calcium entry signal, replicate 2 (fluorescence units) | entry to resting ratio | resting calcium signal, replicate 1 (fluorescence units) | resting calcium signal, replicate 2 (fluorescence units) |
| --- | --- | --- | --- | --- | --- | --- |
| Spn (GeneID 46194) | DRSC07986 | 5.00e7 | 4.48e7 | – | 2.49e7 | 2.00e7 |
| Spn (GeneID 46194) | DRSC08490 | 4.66e7 | 3.61e7 | – | 2.05e7 | 1.76e7 |
| Spn (GeneID 46194) | DRSC08491 | 4.24e7 | 4.93e7 | – | 2.13e7 | 2.17e7 |
| Pepck1 (GeneID 37131) | DRSC07505 | 6.14e7 | 7.31e7 | – | 2.65e7 | 3.26e7 |

The listing, repeating the preview:
| gene knocked down | dsRNA | calcium entry signal, replicate 1 (fluorescence units) | calcium entry signal, replicate 2 (fluorescence units) | entry to resting ratio | resting calcium signal, replicate 1 (fluorescence units) | resting calcium signal, replicate 2 (fluorescence units) |
| --- | --- | --- | --- | --- | --- | --- |
| Spn (GeneID 46194) | DRSC07986 | 5.00e7 | 4.48e7 | – | 2.49e7 | 2.00e7 |
| Spn (GeneID 46194) | DRSC08490 | 4.66e7 | 3.61e7 | – | 2.05e7 | 1.76e7 |
| Spn (GeneID 46194) | DRSC08491 | 4.24e7 | 4.93e7 | – | 2.13e7 | 2.17e7 |
| Pepck1 (GeneID 37131) | DRSC07505 | 6.14e7 | 7.31e7 | – | 2.65e7 | 3.26e7 |
| brv2 (GeneID 39932) | DRSC10226 | 3.64e7 | 4.46e7 | – | 1.76e7 | 2.10e7 |
| lncRNA:CR32553 (GeneID 318087) | DRSC19229 | 3.65e7 | 4.05e7 | – | 1.78e7 | 1.96e7 |
| CG12065 (GeneID 31798) | DRSC17798 | 2.81e7 | 3.57e7 | – | 1.38e7 | 1.60e7 |
| CG12065 (GeneID 31798) | DRSC17799 | 3.87e7 | 3.82e7 | – | 1.96e7 | 1.99e7 |
| ms(3)76Ba (GeneID 40109) | DRSC10091 | 2.34e7 | 4.05e7 | – | 1.13e7 | 1.85e7 |
| CG4133 (GeneID 33221) | DRSC00639 | 3.25e7 | 2.95e7 | – | 1.75e7 | 1.39e7 |
| CG4133 (GeneID 33221) | DRSC23122 | 4.01e7 | 3.17e7 | – | 1.77e7 | 1.50e7 |
| Or49a (GeneID 36350) | DRSC07493 | 3.51e7 | 4.16e7 | – | 1.75e7 | 2.07e7 |
| CG5071 (GeneID 43090) | DRSC15710 | 3.54e7 | 3.73e7 | – | 1.72e7 | 1.71e7 |
| CG5071 (GeneID 43090) | DRSC22570 | 4.76e7 | 3.52e7 | – | 2.20e7 | 1.64e7 |
| Ir52c (GeneID 246630) | DRSC21801 | 2.71e7 | 4.05e7 | – | 1.64e7 | 1.82e7 |
| chinmo (GeneID 33343) | DRSC00292 | 4.87e7 | – | – | 2.71e7 | – |
| chinmo (GeneID 33343) | DRSC00485 | 3.69e7 | 6.72e7 | – | 1.49e7 | 2.51e7 |
| chinmo (GeneID 33343) | DRSC00509 | 4.10e7 | 5.96e7 | – | 1.74e7 | 2.33e7 |
| chinmo (GeneID 33343) | DRSC22413 | 2.96e7 | 3.43e7 | – | 1.56e7 | 1.60e7 |
| CG31496 (GeneID 326145) | DRSC12547 | 3.57e7 | 2.13e7 | – | 1.87e7 | 1.16e7 |
| Targ (GeneID 36630) | DRSC06206 | 2.53e7 | 4.47e7 | – | 1.48e7 | 1.86e7 |
| CG43101 (GeneID 12798468) | DRSC05520 | 4.15e7 | 3.96e7 | – | 1.96e7 | 1.61e7 |
| RabX4 (GeneID 42960) | DRSC22189 | 3.65e7 | 4.92e7 | – | 1.74e7 | 2.64e7 |
| Mst27D (GeneID 319019) | DRSC00967 | 2.81e7 | 3.70e7 | – | 1.58e7 | 1.63e7 |
| TyrR (GeneID 42136) | DRSC13259 | 3.58e7 | 3.06e7 | – | 1.86e7 | 1.57e7 |
| TyrR (GeneID 42136) | DRSC16242 | 1.76e7 | 2.78e7 | – | 2.96e7 | 1.15e7 |
| RabX6 (GeneID 38084) | DRSC08223 | 4.02e7 | 3.57e7 | – | 1.96e7 | 1.60e7 |
| Dus2 (GeneID 32377) | DRSC19591 | 2.92e7 | 3.14e7 | – | 1.43e7 | 1.49e7 |
| CG17207 (GeneID 2768665) | DRSC15198 | 3.90e7 | 4.03e7 | – | 2.02e7 | 1.84e7 |
| l(2)37Cd (GeneID 35193) | DRSC02069 | 5.72e7 | – | – | 2.56e7 | – |
| Pdp1 (GeneID 45588) | DRSC08896 | 2.68e7 | 3.62e7 | – | 1.61e7 | 2.08e7 |
| Pdp1 (GeneID 45588) | DRSC08897 | 2.97e7 | 4.75e7 | – | 2.37e7 | 2.52e7 |
| Pdp1 (GeneID 45588) | DRSC11251 | 2.77e7 | 4.24e7 | – | 1.36e7 | 1.85e7 |
| Pdp1 (GeneID 45588) | DRSC22973 | 5.08e7 | 2.85e7 | – | 2.36e7 | 1.18e7 |
| CG11892 (GeneID 43053) | DRSC14428 | 3.36e7 | 3.17e7 | – | 1.54e7 | 1.44e7 |
| CG15212 (GeneID 50315) | DRSC10212 | 3.01e7 | 4.63e7 | – | 1.46e7 | 2.15e7 |
| CG13590 (GeneID 37907) | DRSC04226 | 4.70e7 | 2.07e7 | – | 2.28e7 | 1.05e7 |
| CG17124 (GeneID 34485) | DRSC02580 | 4.00e7 | 5.11e7 | – | 1.72e7 | 2.30e7 |
| CG43149 (GeneID 12798539) | DRSC07859 | 4.73e7 | 3.09e7 | – | 2.06e7 | 1.50e7 |
| Ir7a (GeneID 31686) | DRSC17866 | 3.02e7 | 3.00e7 | – | 1.46e7 | 1.37e7 |
| CG13293 (GeneID 38695) | DRSC09967 | 2.62e7 | 4.82e7 | – | 1.18e7 | 1.93e7 |
| CG42329 (GeneID 33312) | DRSC00373 | 3.32e7 | 4.02e7 | – | 1.66e7 | 1.85e7 |
| CG42329 (GeneID 33312) | DRSC00682 | 2.99e7 | 3.53e7 | – | 1.53e7 | 1.57e7 |
| Atg16 (GeneID 326115) | DRSC15052 | 2.86e7 | 4.11e7 | – | 1.29e7 | 1.81e7 |
| Atg16 (GeneID 326115) | DRSC15300 | 3.63e7 | 5.60e7 | – | 1.91e7 | 2.33e7 |
| Atg16 (GeneID 326115) | DRSC15375 | 4.32e7 | 6.00e7 | – | 2.26e7 | 2.41e7 |
| CG2577 (GeneID 32188) | DRSC19863 | 3.32e7 | 2.96e7 | – | 1.69e7 | 1.51e7 |
| CG2577 (GeneID 32188) | DRSC23309 | 4.03e7 | 4.22e7 | – | 2.02e7 | 2.02e7 |
| tll (GeneID 43656) | DRSC17085 | 4.00e7 | 6.27e7 | – | 1.94e7 | 2.35e7 |
| PGRP-LB (GeneID 41379) | DRSC14926 | 1.83e7 | 1.91e7 | – | 1.08e7 | 1.02e7 |
| CG14270 (GeneID 31319) | DRSC17913 | 3.69e7 | 5.31e7 | 2.2 | 1.70e7 | 2.22e7 |
| CG32801 (GeneID 31152) | DRSC17964 | 4.88e7 | 6.05e7 | 2.1 | 2.36e7 | 2.42e7 |
| NO66 (GeneID 31374) | DRSC18252 | 4.24e7 | 4.43e7 | – | 1.85e7 | 1.98e7 |
| CG10939 (GeneID 44155) | DRSC06019 | 2.31e7 | 2.10e7 | – | 1.09e7 | 9.78e6 |
| CG10939 (GeneID 44155) | DRSC21734 | 2.94e7 | 3.25e7 | – | 1.49e7 | 1.48e7 |
| CG16998 (GeneID 38847) | DRSC10235 | 2.77e7 | 3.58e7 | – | 1.31e7 | 1.54e7 |
| CG17707 (GeneID 5740408) | DRSC20650 | 4.56e7 | 3.91e7 | – | 2.33e7 | 1.77e7 |
| CG10116 (GeneID 39515) | DRSC09700 | 2.42e7 | 3.31e7 | – | 1.17e7 | 2.35e7 |
